Values from PubChem BioAssay AID1259296 (Sanger Institute, 2017)

Aim: 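Kinase knock-downs that boost killing by anchor drugs in colorectal cancer cells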 (follow-up of hits)
Cells: CAR1 human colorectal cancer cells
Reagents: single siRNA against human genes
Conditions: anchor drugs BYL719 at 1 µM, cetuximab at 5 µg/ml or trametinib at 10 nM, or DMSO vehicle, added a day after transfection
Measured: 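Viability of cells versus control pool 2 (non-targeting) averaged across replicates; for every anchor drug, synergy score comparing joint effect with drug or siRNA alone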
Direction: synergy with BYL719 and synergy with cetuximab and synergy with trametinib: higher = stronger synergy between knock-down and drug
Hit rule: 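Called active if the synergy score with at least one anchor drug is above 0.10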
Here is one part, drawn at random, of 160 reagents tested. 45 of them (28%) count as active. 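Calls are per single siRNA duplex in CAR1 cells only; how the synergy score is calculated is not stated.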 The numbers tell different reagents against one gene apart. Not all columns of the deposit are shown. No sequences are given here. Not stated in the record: the amount of reagent, the time to read-out.

With MPP3 (MAGUK p55 scaffold protein 3) #1, how do the results read?
synergy with BYL719: -0.0183; synergy with cetuximab: -0.0288; synergy with trametinib: 0.112; Outcome: active

What did the screen give for MPP3 (MAGUK p55 scaffold protein 3) #2?
synergy with BYL719: 0.057; synergy with cetuximab: -0.064; synergy with trametinib: 0.128; Outcome: active

For MPP3 (MAGUK p55 scaffold protein 3) #3, what does the deposit list?
synergy with BYL719: -0.00646; synergy with cetuximab: -0.0604; synergy with trametinib: 0.116; Outcome: active

For MPP3 (MAGUK p55 scaffold protein 3) #4, what does the deposit list?
synergy with BYL719: 0.0275; synergy with cetuximab: 0.0318; synergy with trametinib: 0.157; Outcome: active

What is on record for SF3B1 (splicing factor 3b subunit 1) #1?
synergy with BYL719: -0.152; synergy with cetuximab: -0.0589; synergy with trametinib: 0.000962; Outcome: inactive

What did the screen give for SF3B1 (splicing factor 3b subunit 1) #2?
synergy with BYL719: -0.055; synergy with cetuximab: -0.0855; synergy with trametinib: 0.0664; Outcome: inactive

How did the screen score SF3B1 (splicing factor 3b subunit 1) #3?
synergy with BYL719: 0.0429; synergy with cetuximab: 0.0669; synergy with trametinib: 0.0802; Outcome: inactive

For SF3B1 (splicing factor 3b subunit 1) #4, what was measured?
synergy with BYL719: -0.149; synergy with cetuximab: -0.08; synergy with trametinib: -0.102; Outcome: inactive

For SYK (spleen associated tyrosine kinase) #1, what was measured?
synergy with BYL719: 0.203; synergy with cetuximab: 0.00764; synergy with trametinib: 0.0863; Outcome: active

For SYK (spleen associated tyrosine kinase) #2, what was measured?
synergy with BYL719: 0.0318; synergy with cetuximab: 0.0285; synergy with trametinib: 0.127; Outcome: active

With SYK (spleen associated tyrosine kinase) #3, what does the deposit list?
synergy with BYL719: 0.0915; synergy with cetuximab: -0.00503; synergy with trametinib: 0.096; Outcome: inactive

For SYK (spleen associated tyrosine kinase) #4, what does the deposit list?
synergy with BYL719: -0.208; synergy with cetuximab: -0.146; synergy with trametinib: -0.106; Outcome: inactive

2 entries from above, ordered by “synergy with BYL719”, ascending.
SYK (spleen associated tyrosine kinase) #2: synergy with BYL719 = 0.0318; synergy with cetuximab = 0.0285; synergy with trametinib = 0.127; Outcome = active
SYK (spleen associated tyrosine kinase) #3: synergy with BYL719 = 0.0915; synergy with cetuximab = -0.00503; synergy with trametinib = 0.096; Outcome = inactive

The listing continues.
How did the screen score NR2F2 (nuclear receptor subfamily 2 group F member 2) #1?
synergy with BYL719: -0.0606; synergy with cetuximab: -0.000436; synergy with trametinib: 0.0975; Outcome: inactive

Which result is listed for NR2F2 (nuclear receptor subfamily 2 group F member 2) #2?
synergy with BYL719: -0.00603; synergy with cetuximab: -0.119; synergy with trametinib: 0.0149; Outcome: inactive

How did the screen score NR2F2 (nuclear receptor subfamily 2 group F member 2) #3?
synergy with BYL719: -0.0713; synergy with cetuximab: -0.0133; synergy with trametinib: 0.0367; Outcome: inactive

What did the screen give for NR2F2 (nuclear receptor subfamily 2 group F member 2) #4?
synergy with BYL719: -0.11; synergy with cetuximab: -0.142; synergy with trametinib: -0.172; Outcome: inactive

For BMPR2 (bone morphogenetic protein receptor type 2) #1, what does the deposit list?
synergy with BYL719: -0.0312; synergy with cetuximab: -0.0538; synergy with trametinib: -0.0103; Outcome: inactive

For BMPR2 (bone morphogenetic protein receptor type 2) #2, what was measured?
synergy with BYL719: 0.0829; synergy with cetuximab: -0.000355; synergy with trametinib: -0.00758; Outcome: inactive

For BMPR2 (bone morphogenetic protein receptor type 2) #3, what was measured?
synergy with BYL719: -0.09; synergy with cetuximab: -0.0377; synergy with trametinib: -0.0323; Outcome: inactive

For BMPR2 (bone morphogenetic protein receptor type 2) #4, what was measured?
synergy with BYL719: -0.113; synergy with cetuximab: 0.0248; synergy with trametinib: 0; Outcome: inactive

What did the screen give for PINK1 (PTEN induced kinase 1) #1?
synergy with BYL719: -0.201; synergy with cetuximab: -0.131; synergy with trametinib: -0.0787; Outcome: inactive

For PINK1 (PTEN induced kinase 1) #2, what was measured?
synergy with BYL719: -0.089; synergy with cetuximab: -0.11; synergy with trametinib: -0.0451; Outcome: inactive

With PINK1 (PTEN induced kinase 1) #3, what was measured?
synergy with BYL719: 0.107; synergy with cetuximab: -0.0952; synergy with trametinib: 0.0219; Outcome: active

For PINK1 (PTEN induced kinase 1) #4, what does the deposit list?
synergy with BYL719: -0.131; synergy with cetuximab: -0.137; synergy with trametinib: -0.0094; Outcome: inactive
